Results from article PMC10164956.
Where two headings read alike, the source gives them in different places. These are yes or no findings as the source states them, for the method shown. In cells and extracts the contact can be indirect. Some results given as binding are weak or reduced against the parent protein; the word gives no strength.

Protein sequences, listed by entry. Tags and fused reporters are not part of them.
UniProt Q8BX22: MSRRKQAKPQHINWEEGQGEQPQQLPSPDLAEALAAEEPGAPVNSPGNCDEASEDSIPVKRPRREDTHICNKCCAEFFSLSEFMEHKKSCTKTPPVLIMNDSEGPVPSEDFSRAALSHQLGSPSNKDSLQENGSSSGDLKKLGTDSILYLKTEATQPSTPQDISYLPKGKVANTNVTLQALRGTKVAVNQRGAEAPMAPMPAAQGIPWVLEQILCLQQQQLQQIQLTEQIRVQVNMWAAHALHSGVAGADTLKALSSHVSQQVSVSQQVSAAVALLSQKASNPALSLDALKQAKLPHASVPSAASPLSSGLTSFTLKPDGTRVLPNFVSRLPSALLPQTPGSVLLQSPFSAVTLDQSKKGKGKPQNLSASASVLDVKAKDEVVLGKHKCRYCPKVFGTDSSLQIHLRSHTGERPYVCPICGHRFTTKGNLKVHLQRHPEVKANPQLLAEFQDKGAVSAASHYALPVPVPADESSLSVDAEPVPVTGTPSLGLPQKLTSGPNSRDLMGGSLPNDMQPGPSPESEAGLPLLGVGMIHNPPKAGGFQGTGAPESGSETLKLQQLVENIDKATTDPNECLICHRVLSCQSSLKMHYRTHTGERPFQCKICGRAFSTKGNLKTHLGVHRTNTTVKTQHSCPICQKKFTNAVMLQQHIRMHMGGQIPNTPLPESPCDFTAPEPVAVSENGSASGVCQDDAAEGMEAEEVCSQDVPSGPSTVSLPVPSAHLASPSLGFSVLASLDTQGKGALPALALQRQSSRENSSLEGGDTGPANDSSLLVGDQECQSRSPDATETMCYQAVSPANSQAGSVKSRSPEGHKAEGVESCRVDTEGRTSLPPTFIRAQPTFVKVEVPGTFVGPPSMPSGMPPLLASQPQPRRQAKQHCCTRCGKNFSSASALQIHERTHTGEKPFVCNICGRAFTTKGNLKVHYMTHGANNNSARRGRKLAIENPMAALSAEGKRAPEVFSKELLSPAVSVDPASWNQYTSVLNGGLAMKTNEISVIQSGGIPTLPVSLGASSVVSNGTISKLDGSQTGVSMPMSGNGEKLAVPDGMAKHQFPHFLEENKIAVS
UniProt Q9CQJ4: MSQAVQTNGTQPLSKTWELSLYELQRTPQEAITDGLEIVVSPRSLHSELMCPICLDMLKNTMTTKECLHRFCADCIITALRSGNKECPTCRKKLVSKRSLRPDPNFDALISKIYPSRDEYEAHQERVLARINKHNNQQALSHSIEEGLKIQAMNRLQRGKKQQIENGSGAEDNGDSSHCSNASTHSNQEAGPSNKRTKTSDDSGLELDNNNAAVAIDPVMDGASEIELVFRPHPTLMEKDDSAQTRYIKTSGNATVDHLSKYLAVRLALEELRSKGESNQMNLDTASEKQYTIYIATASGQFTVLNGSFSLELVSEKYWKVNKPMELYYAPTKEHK

T1: B cell-specific Moloney murine leukemia virus integration site 1 (BMI1) (mouse (endogenous in undifferentiated spermatogonia)) (UniProt P25916)
T1 sequence: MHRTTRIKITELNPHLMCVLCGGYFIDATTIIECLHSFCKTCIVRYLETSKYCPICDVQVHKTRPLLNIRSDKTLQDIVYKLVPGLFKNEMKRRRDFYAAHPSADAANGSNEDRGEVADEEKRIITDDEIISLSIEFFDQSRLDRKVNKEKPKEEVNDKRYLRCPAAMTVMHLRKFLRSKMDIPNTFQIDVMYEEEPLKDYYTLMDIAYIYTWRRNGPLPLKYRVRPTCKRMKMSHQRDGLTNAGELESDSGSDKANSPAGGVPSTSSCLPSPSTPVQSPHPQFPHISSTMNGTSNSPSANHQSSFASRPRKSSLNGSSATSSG

B1: PHC1 (protein, UniProt Q64028 1-1010)
chain: METESEQNSSSTNGSSSSGASSRPQIAQMSLYERQAVQALQALQRQPNAAQYFHQFMLQQQLSNAQLHSLAAVQQATIAASRQASSPNSSTAQQQTATTQASMNLATTSAAQLISRSQSVSSPSATTLTQSVLLGNTTSPPLNQSQAQMYLRPQLGNLLQVNRTLGRNVPLASQLILMPNGAVAAVQQEVPPAQSPGVHADADQVQNLAVRNQQASAQGPQMPGSTQKAIPPGASPVSGLSQTSSQALAVAQASSGASGQSLNLSQAGGGSGNSLPGSMGPGGGGQAPGGLGQLPSSGLTGGSCPRKGTGVVQPLPAAQTVTVSQGSQTEAESAAAKKAEADGSGQQSVGMNLTRTATPAPSQTLISSATYTQIQPHSLIQQQQQIHLQQKQVVIQQQIAIHHQQQFQHRQSQLLHTATHLQLAQQQQQQQQQQQQQQQQQQQQQQGTTLTAPQPPQVPPTQQVPPSQSQQQAQTLVVQPMLQSSPLTLPPEPTSKPPIPIQSKPPVAPIKPPQLGAAKMSATQQPPPHIPVQVVGTRQPGSAQAQALGLAQLAAAVPTPRGITGAVQPGQAHLASSPPSSQAAPGALQECPPALAAGMTLAPVQGTAHVVKGGPTASSPVVAQVPAAFYMQSVHLPGKAQTLAVKRKAESEEERDDLSALASVLPTKASPAAESPKVIEEKNSLGEKAEPVASLNANPPNSDLVALAPTPSAPPPTLALVSRQMGDSKPPQAIVKPQILTHIIEGFVIQEGAEPFPVGCSQFLKETKKPLQAGLPTGLNESQPSGPLGGDSPSVELEKKANLLKCEYCGKYAPAEQFRGSKRFCSMTCAKRYNVSCSHQFRLKRKKMKEFQEASYARVRRRGPRRSSSDIARAKIQGKRHRGQEDSSRGSDNSSYDEALSPTSPGPLSVRAGHGERDLGNTITTPSTPELQGINPVFLSSNPSQWSVEEVYEFIASLQGCQEIAEEFRSQEIDGQALLLLKEEHLMSAMNIKLGPALKICAKINVLKET

Experiments:
[1] = target: T1, B cell-specific Moloney murine leukemia virus integration site 1 (BMI1) (mouse (endogenous in undifferentiated spermatogonia)); experiment: co-IP; endogenous proteins; lysate of mouse undifferentiated spermatogonia (M-PER with protease inhibitors); primary antibody overnight at 4°C, Protein A/G Plus-Agarose 2 h at 4°C; three washes with IP buffer; Western blotting
[2] = compound: T2, B cell-specific Moloney murine leukemia virus integration site 1 (BMI1) (mouse (endogenous in undifferentiated spermatogonia)) (UniProt P25916); experiment: as above; remark: listed apart in the source
T2 sequence: T1 sequence

Row | Molecule | binding [1] | binding [2]
1 | Sal-like 4 (SALL4) (from UniProt Q8BX22 1-1067) | binds | –
2 | RNF2 (the core member of PRC1) (from UniProt Q9CQJ4 1-336) | binds | –
3 | B1 | – | binds
